Measured values: the supplement of paper PMC10849652
Some of the results follow.

The chains behind the UniProt entries cited, without tags or fusion partners. Where a name states a change or a piece, a line headed by the entry shows the natural chain unless it says otherwise.
UniProt P04066: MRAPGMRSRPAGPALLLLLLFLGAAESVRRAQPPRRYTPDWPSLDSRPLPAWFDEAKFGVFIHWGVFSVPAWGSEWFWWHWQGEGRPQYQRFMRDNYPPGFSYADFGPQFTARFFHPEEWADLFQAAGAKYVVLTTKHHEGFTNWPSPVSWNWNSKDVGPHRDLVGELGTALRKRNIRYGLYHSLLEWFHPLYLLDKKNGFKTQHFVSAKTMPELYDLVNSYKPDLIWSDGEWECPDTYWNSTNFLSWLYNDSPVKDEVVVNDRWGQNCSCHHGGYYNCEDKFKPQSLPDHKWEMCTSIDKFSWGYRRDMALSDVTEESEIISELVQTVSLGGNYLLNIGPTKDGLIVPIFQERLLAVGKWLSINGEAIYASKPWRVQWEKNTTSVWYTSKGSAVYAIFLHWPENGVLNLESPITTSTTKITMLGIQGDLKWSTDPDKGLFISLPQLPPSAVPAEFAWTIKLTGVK
UniProt P98177: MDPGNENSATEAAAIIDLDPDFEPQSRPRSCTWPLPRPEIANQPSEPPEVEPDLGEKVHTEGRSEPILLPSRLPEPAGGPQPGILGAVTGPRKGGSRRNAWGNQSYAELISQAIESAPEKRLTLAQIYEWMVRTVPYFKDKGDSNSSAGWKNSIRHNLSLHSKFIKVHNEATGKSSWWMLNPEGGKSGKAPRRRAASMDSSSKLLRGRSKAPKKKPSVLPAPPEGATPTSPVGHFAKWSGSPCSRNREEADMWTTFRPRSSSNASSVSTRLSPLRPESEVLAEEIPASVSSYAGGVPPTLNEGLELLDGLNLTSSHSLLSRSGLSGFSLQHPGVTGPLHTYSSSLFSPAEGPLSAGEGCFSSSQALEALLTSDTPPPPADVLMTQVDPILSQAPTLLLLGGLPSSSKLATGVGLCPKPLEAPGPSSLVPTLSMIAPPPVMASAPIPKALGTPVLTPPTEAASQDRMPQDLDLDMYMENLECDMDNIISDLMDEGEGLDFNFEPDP
UniProt Q8NCL4: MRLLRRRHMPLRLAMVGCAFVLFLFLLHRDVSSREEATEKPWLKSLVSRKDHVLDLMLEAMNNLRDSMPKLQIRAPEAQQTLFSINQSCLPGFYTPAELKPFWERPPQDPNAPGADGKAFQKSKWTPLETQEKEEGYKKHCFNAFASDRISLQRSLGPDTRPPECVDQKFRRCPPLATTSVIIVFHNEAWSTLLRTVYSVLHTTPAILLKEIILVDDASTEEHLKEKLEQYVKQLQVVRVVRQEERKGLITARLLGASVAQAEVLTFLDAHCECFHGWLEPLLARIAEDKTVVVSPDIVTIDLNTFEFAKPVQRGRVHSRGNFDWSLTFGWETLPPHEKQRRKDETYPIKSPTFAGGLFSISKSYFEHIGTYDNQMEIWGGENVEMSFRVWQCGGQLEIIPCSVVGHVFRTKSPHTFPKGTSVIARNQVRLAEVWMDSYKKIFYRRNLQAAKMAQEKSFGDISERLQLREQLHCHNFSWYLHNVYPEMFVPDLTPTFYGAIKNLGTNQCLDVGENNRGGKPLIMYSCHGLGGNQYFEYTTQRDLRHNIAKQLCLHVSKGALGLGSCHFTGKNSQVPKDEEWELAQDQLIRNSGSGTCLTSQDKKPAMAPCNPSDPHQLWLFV
UniProt Q86SR1: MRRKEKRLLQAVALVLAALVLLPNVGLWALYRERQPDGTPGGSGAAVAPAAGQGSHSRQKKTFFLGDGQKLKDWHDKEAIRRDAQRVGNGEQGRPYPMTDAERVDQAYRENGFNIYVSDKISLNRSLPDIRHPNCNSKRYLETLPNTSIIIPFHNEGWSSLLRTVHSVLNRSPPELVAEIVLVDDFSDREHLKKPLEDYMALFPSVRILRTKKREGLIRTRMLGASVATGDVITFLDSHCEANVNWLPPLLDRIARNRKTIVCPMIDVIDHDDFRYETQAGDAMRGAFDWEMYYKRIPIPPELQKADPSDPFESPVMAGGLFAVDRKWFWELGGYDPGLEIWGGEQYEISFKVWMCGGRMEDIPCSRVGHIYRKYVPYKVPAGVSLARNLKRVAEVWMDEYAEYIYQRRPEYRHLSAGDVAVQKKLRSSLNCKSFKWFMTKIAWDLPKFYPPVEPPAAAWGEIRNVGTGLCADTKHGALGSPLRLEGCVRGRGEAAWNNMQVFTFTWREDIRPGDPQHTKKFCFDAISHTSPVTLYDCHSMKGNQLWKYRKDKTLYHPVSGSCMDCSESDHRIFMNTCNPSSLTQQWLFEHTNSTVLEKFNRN
UniProt P58012: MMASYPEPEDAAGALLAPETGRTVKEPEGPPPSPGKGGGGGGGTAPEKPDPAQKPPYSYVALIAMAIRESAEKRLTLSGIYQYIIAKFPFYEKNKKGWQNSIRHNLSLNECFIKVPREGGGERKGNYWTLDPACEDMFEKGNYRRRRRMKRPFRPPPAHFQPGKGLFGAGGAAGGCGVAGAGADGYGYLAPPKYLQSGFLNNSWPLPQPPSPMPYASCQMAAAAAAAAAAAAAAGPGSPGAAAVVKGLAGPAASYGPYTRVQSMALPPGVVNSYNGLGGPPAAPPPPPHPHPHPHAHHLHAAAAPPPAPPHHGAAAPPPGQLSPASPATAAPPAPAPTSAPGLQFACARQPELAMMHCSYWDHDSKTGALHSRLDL
UniProt Q06547, whole entry, looked up: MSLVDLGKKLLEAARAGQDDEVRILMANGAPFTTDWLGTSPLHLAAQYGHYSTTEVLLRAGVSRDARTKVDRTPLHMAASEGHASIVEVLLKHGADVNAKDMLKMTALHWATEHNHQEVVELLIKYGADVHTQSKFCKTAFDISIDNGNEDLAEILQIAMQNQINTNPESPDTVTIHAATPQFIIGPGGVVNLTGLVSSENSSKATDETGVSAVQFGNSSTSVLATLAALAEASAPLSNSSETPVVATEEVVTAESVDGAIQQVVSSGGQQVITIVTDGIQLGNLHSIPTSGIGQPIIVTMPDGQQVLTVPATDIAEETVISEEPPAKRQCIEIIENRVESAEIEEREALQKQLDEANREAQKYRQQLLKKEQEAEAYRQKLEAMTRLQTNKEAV
UniProt Q9NZC3: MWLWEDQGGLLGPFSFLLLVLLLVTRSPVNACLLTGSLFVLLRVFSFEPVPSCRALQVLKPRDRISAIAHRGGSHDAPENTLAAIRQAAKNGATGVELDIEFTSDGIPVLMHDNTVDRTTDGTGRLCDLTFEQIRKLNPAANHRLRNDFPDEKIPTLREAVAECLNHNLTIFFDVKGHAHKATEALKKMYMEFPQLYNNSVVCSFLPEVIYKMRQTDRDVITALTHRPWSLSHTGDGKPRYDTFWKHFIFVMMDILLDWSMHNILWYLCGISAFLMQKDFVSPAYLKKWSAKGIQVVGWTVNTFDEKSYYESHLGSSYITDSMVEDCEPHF
UniProt Q9UM11, whole entry, looked up: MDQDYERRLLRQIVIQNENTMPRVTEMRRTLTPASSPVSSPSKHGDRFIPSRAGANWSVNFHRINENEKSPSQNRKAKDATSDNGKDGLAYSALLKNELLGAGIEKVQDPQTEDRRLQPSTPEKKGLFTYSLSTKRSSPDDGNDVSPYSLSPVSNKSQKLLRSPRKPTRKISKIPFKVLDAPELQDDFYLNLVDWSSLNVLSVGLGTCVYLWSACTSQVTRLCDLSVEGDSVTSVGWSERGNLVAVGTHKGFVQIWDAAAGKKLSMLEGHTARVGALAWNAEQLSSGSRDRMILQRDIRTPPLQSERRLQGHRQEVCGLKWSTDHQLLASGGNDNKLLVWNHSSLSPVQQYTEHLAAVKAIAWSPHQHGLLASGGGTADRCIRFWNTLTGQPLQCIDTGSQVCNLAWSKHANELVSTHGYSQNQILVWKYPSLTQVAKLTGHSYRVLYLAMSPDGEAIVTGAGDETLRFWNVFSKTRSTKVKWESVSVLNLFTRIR
UniProt Q13467, whole entry, looked up: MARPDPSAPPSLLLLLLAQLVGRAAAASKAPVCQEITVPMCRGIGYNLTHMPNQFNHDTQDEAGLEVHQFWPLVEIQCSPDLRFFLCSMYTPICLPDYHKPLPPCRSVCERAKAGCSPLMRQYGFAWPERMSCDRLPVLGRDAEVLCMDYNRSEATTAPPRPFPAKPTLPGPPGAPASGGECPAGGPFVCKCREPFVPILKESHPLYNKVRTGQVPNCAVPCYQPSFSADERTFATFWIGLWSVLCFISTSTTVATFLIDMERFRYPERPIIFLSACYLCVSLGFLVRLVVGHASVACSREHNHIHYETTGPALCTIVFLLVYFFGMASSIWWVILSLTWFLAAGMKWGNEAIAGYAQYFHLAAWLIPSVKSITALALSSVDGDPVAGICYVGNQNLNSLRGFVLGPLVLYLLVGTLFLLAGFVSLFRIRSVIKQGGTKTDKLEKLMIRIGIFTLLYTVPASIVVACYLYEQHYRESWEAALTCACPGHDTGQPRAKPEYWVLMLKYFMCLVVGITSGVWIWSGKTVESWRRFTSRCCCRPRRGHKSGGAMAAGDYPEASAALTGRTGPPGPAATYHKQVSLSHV
UniProt Q9BZ67: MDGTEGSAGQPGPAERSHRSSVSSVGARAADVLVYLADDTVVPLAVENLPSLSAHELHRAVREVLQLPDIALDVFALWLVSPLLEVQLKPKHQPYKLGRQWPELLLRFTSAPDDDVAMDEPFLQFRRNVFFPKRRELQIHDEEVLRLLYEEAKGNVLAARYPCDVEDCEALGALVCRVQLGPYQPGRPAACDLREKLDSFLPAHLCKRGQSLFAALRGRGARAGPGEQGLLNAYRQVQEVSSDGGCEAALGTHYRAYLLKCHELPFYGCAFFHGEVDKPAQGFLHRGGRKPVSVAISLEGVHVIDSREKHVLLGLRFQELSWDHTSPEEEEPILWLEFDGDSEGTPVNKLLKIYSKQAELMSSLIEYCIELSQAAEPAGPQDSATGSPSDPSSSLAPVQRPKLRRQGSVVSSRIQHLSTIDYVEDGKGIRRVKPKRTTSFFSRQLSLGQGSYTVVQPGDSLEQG
UniProt Q3B7J2: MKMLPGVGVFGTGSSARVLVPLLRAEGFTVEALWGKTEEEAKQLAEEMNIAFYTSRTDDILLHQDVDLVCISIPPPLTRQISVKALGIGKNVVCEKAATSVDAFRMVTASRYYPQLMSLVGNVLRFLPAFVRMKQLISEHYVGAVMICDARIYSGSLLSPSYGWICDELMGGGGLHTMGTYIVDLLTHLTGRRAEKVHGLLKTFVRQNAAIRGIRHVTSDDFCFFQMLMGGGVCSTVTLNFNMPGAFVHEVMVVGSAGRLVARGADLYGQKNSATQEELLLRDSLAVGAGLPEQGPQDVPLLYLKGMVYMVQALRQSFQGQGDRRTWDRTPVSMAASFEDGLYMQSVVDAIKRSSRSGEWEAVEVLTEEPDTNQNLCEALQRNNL
UniProt Q9BYC5: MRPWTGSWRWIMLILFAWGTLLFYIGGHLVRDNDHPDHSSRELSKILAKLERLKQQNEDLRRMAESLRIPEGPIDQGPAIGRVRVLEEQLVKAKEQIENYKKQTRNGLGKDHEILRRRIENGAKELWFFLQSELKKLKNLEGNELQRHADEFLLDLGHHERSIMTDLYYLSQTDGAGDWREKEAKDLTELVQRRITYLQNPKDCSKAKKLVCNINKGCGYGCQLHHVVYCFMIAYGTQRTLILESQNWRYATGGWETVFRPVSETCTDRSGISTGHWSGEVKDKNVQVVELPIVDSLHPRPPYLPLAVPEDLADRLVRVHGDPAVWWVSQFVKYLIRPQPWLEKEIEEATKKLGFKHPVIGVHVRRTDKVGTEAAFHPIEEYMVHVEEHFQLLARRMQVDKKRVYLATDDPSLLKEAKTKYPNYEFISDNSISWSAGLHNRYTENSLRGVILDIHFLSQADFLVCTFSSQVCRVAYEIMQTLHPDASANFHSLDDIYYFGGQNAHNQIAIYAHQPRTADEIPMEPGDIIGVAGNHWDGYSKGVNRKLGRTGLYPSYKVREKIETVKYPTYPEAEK
UniProt P06241, whole entry, looked up: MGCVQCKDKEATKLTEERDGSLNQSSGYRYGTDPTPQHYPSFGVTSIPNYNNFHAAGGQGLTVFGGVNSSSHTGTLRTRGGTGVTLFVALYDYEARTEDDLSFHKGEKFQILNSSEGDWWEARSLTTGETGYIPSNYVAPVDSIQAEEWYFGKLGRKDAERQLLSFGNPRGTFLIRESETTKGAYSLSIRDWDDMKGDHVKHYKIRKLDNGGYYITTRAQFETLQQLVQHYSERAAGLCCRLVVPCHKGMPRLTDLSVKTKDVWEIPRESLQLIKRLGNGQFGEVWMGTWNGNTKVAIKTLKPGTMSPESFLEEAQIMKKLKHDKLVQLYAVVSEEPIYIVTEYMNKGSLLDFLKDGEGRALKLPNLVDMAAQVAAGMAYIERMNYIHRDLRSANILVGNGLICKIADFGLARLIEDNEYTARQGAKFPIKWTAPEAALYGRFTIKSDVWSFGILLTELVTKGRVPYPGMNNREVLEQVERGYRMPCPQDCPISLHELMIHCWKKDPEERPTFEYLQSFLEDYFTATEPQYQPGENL

Assays:
Test in all cases: log2 fold change, soluble protein after heating vs DMSO (PISA); higher = thermal stabilisation; K562 lysate, 10 uM; active = over 0.2 and 3.5 SD of the protein, either way, in both replicates (recomputed)
ibrutinib = compound: C=CC(=O)N1CCC[C@@H](n2nc(-c3ccc(Oc4ccccc4)cc3)c3c(N)ncnc32)C1 [ibrutinib]
In short: (§1)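 A 30 min treatment with 10 μM compound was applied to crude K562 extract at 1 mg/mL protein in PBS pH 7.4 with 1 mM MgCl2. Heating for 3 min spanned 48°C-58°C, after which aliquots were pooled, adjusted to 0.5% NP-40 at 4°C and spun at 21,000xg for 90 min. TMTpro 16plex LC-MS/MS of the supernatant, with channel sums equalised, gave values recorded as log-two fold change in thermal stability against solvent controls, from duplicates.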

[1] = compound: CC(=O)c1cnc2ccc(-c3cc(Cl)c(O)c(Cl)c3)nc2c1N[C@H]1CC[C@H](CN(C)C)CC1
In short: as §1

ralimetinib = compound: CC(C)(C)Cn1c(N)nc2ccc(-c3[nH]c(C(C)(C)C)nc3-c3ccc(F)cc3)nc21 [ralimetinib]
In short: as §1

[2] = compound: CC(C)(O)CC(=O)NCCn1ccc2ncnc(Nc3ccc(Oc4cccc(C(F)(F)F)c4)c(Cl)c3)c21
In short: as §1

[3] = compound: CC(C)C1=C2N=C(C=C(N2N=C1)NCC3=CC=CC=C3)NCCCCCCN
In short: as §1

[4] = compound: CC1=C(C(CC(=O)N1)C2=CC=C(C=C2)C(F)(F)F)C(=O)NC3=C(C=C4C(=C3)C=NN4)F
In short: as §1

[5] = compound: CC1=C(C2=C(C=C1)C(=O)C3=CC=CC=C3N2CCCN)C
In short: as §1

[6] = compound: CC1=C(C=C(C=C1)NC(=O)C2=CC(=CC=C2)C(C)(C)C#N)NC3=CC4=C(C=C3)N=CN(C4=O)C
In short: as §1

[7] = compound: CC1=C(C=C(C=C1)NC(=O)C2=CC(=CC=C2)N(C)C)NC(=O)C3=CC=C(C=C3)O
In short: as §1

[8] = compound: CC1=CC=C(C=C1)SC2=C3C=C(SC3=CN=C2)C(=O)N
In short: as §1

vemurafenib = compound: CCCS(=O)(=O)Nc1ccc(F)c(C(=O)c2c[nH]c3ncc(-c4ccc(Cl)cc4)cc23)c1F [vemurafenib]
In short: as §1

[9] = compound: CCCS(=O)(=O)Nc1ccc(F)c(C(=O)c2c[nH]c3ncc(Cl)cc23)c1F
In short: as §1

barasertib = compound: CCN(CCCOc1ccc2c(Nc3cc(CC(=O)Nc4cccc(F)c4)[nH]n3)ncnc2c1)CCOP(=O)(O)O [barasertib]
In short: as §1

[10] = compound: CC[C@@H]1C(=O)N(C)c2cnc(Nc3ccc(C(=O)NC4CCN(C)CC4)cc3OC)nc2N1C1CCCC1
In short: as §1

volasertib = compound: CC[C@@H]1C(=O)N(C)c2cnc(Nc3ccc(C(=O)N[C@H]4CC[C@H](N5CCN(CC6CC6)CC5)CC4)cc3OC)nc2N1C(C)C [volasertib]
In short: as §1

[11] = compound: CCn1c(C(=O)N(C2CC2)C2CC2)cc2c3c(ncn3C)c(Nc3cc(C)n(C)n3)nc21
In short: as §1

[12] = compound: CCn1cc(-c2ccnc3[nH]c(-c4cccc(CN(C)C)c4)cc23)c(-c2ccc(NC(=O)N(C)C)cc2)n1
In short: as §1

[13] = compound: CN1CCC(CNc2ccc3ncc(-c4cccc(OC(F)(F)F)c4)n3n2)CC1
In short: as §1

saracatinib = compound: CN1CCN(CCOc2cc(OC3CCOCC3)c3c(Nc4c(Cl)ccc5c4OCO5)ncnc3c2)CC1 [saracatinib]
In short: as §1

sotrastaurin = compound: CN1CCN(c2nc(C3=C(c4c[nH]c5ccccc45)C(=O)NC3=O)c3ccccc3n2)CC1 [sotrastaurin]
In short: as §1

Measured: log2 fold change

FRG1 (UniProt Q14331)
inactive: ibrutinib 0.011 | [1] -0.007 | ralimetinib -0.027 | [2] -0.023 | [3] 0.042 | [4] 0.004 | [5] -0.005 | [6] -0.031 | [7] 0.025 | [8] 0.024 | vemurafenib 0.01 | [9] 0.02 | barasertib -0.041 | [10] 0.015 | volasertib -0.014 | [11] 0.013 | [12] 0.034 | [13] 0.043 | saracatinib 0.032 | sotrastaurin 0.003

FUCA1 (UniProt P04066)
inactive: ibrutinib 0.015 | [1] -0.049 | ralimetinib 0.007 | [2] -0.09 | [3] -0.036 | [4] -0.051 | [5] -0.046 | [6] 0.037 | [7] -0.009 | [8] -0.035 | vemurafenib 0.027 | [9] 0.007 | barasertib -0.015 | [10] -0.004 | volasertib 0.026 | [11] -0.042 | [12] -0.138 | [13] 0.088 | saracatinib 0.019 | sotrastaurin -0.006

FOXP4 (UniProt Q8IVH2)
inactive: ibrutinib -0.1 | ralimetinib 0.039 | [2] -0.006 | [3] 0.09 | [4] 0.04 | [5] -0.186 | [7] 0.138 | vemurafenib 0.001 | barasertib -0.161 | [10] 0 | [11] 0.005 | [12] -0.07 | [13] 0.143 | saracatinib -0.083

FOXO4 (UniProt P98177)
inactive: ibrutinib -0.086 | barasertib 0.063 | [12] 0.093 | [13] 0.22

GALNT6 (UniProt Q8NCL4)
inactive: ibrutinib 0.091 | [1] -0.04 | [3] -0.083 | [4] 0.035 | [5] 0.004 | [6] 0.042 | [8] -0.087 | vemurafenib 0.154 | [9] -0.04 | barasertib -0.044 | [10] -0.027 | volasertib 0.012 | [12] -0.017 | [13] 0.16 | saracatinib 0.148 | sotrastaurin 0.022

GALNT10 (UniProt Q86SR1)
inactive: ibrutinib -0.098 | [1] -0.053 | [3] 0.194 | [5] 0 | [8] -0.017 | vemurafenib -0.132 | [9] 0.092 | barasertib -0.112 | [10] 0.173 | volasertib -0.005 | saracatinib 0.09

GDI2 (UniProt Q5SX86)
inactive: ibrutinib 0.158 | [1] -0.057 | ralimetinib 0.162 | [2] 0.089 | [3] -0.218 | [4] 0.259 | [5] -0.23 | [7] -0.031 | [8] -0.049 | vemurafenib -0.609 | [9] 0.014 | barasertib 0.484 | volasertib -0.005 | [11] -0.074 | [12] 0.07 | [13] -0.075 | saracatinib 0.117

GART (UniProt C9JZG2)
inactive: ibrutinib -0.062 | [1] 0.037 | ralimetinib 0.069 | [2] -0.068 | [4] -0.114 | [6] 0.083 | [7] -0.052 | [8] 0.022 | [9] -0.014 | barasertib 0.086 | [10] -0.021 | volasertib 0.06 | [11] -0.043 | [12] 0.135 | [13] 0.085 | sotrastaurin 0.09

7 neighbouring records already listed, for reference:
FUCA1 (UniProt P04066)
inactive: ibrutinib 0.015 | [1] -0.049 | ralimetinib 0.007 | [2] -0.09 | [3] -0.036 | [4] -0.051 | [5] -0.046 | [6] 0.037 | [7] -0.009 | [8] -0.035 | vemurafenib 0.027 | [9] 0.007 | barasertib -0.015 | [10] -0.004 | volasertib 0.026 | [11] -0.042 | [12] -0.138 | [13] 0.088 | saracatinib 0.019 | sotrastaurin -0.006

FOXP4 (UniProt Q8IVH2)
inactive: ibrutinib -0.1 | ralimetinib 0.039 | [2] -0.006 | [3] 0.09 | [4] 0.04 | [5] -0.186 | [7] 0.138 | vemurafenib 0.001 | barasertib -0.161 | [10] 0 | [11] 0.005 | [12] -0.07 | [13] 0.143 | saracatinib -0.083

FOXO4 (UniProt P98177)
inactive: ibrutinib -0.086 | barasertib 0.063 | [12] 0.093 | [13] 0.22

GALNT6 (UniProt Q8NCL4)
inactive: ibrutinib 0.091 | [1] -0.04 | [3] -0.083 | [4] 0.035 | [5] 0.004 | [6] 0.042 | [8] -0.087 | vemurafenib 0.154 | [9] -0.04 | barasertib -0.044 | [10] -0.027 | volasertib 0.012 | [12] -0.017 | [13] 0.16 | saracatinib 0.148 | sotrastaurin 0.022

GALNT10 (UniProt Q86SR1)
inactive: ibrutinib -0.098 | [1] -0.053 | [3] 0.194 | [5] 0 | [8] -0.017 | vemurafenib -0.132 | [9] 0.092 | barasertib -0.112 | [10] 0.173 | volasertib -0.005 | saracatinib 0.09

GDI2 (UniProt Q5SX86)
inactive: ibrutinib 0.158 | [1] -0.057 | ralimetinib 0.162 | [2] 0.089 | [3] -0.218 | [4] 0.259 | [5] -0.23 | [7] -0.031 | [8] -0.049 | vemurafenib -0.609 | [9] 0.014 | barasertib 0.484 | volasertib -0.005 | [11] -0.074 | [12] 0.07 | [13] -0.075 | saracatinib 0.117

GART (UniProt C9JZG2)
inactive: ibrutinib -0.062 | [1] 0.037 | ralimetinib 0.069 | [2] -0.068 | [4] -0.114 | [6] 0.083 | [7] -0.052 | [8] 0.022 | [9] -0.014 | barasertib 0.086 | [10] -0.021 | volasertib 0.06 | [11] -0.043 | [12] 0.135 | [13] 0.085 | sotrastaurin 0.09

Next part

GAS6 isoform 1 (UniProt Q14393)
inactive: ibrutinib 0.047 | [1] -0.086 | [3] -0.175 | [6] 0.066 | [8] 0.012 | [9] -0.135 | barasertib -0.011 | [10] -0.315 | volasertib -0.082 | [12] -0.096 | [13] 0.188 | sotrastaurin 0.076

FOXL2 (UniProt P58012)
inactive: ibrutinib -0.074 | [1] -0.065 | ralimetinib 0.264 | [2] -0.095 | [3] 0.161 | [5] -0.023 | [7] 0.02 | [8] -0.035 | [9] 0.026 | barasertib 0.051 | [10] 0.01 | volasertib 0.046 | [11] 0.174 | saracatinib -0.038

GARS1 (UniProt H7C443)
inactive: ibrutinib -0.06 | [1] 0.019 | [8] 0.072 | [9] 0.012 | barasertib 0.063 | volasertib 0.008

FYTTD1 (UniProt Q96QD9)
inactive: ibrutinib -0.316 | [3] -0.063 | [5] -0.029 | [6] -0.068 | vemurafenib 0.057 | barasertib 0.058 | [10] -0.444 | saracatinib -0.085 | sotrastaurin 0.028

GABPB1 isoform 3 (UniProt Q06547)
inactive: ibrutinib 0.085 | [1] -0.027 | ralimetinib 0.043 | [2] -0.068 | [3] 0.121 | [5] 0.099 | [6] -0.051 | [7] -0.042 | [8] 0.03 | vemurafenib 0.057 | [9] 0.074 | barasertib 0.141 | [10] -0.048 | volasertib -0.11 | [11] -0.016 | [12] -0.042 | [13] -0.028 | saracatinib -0.006 | sotrastaurin -0.022

GDE1 (UniProt Q9NZC3)
active: [12] 1.04 | [13] -0.455
inactive: ibrutinib -0.047 | [1] -0.017 | ralimetinib 0.067 | [2] 0.026 | [3] 0.025 | [5] -0.038 | [6] -0.036 | [7] -0.122 | [8] -0.014 | [9] 0.038 | barasertib 0.108 | [10] 0.107 | volasertib 0.092 | [11] 0.005 | saracatinib 0.035 | sotrastaurin -0.064

FOXP1 (UniProt Q9H334)
inactive: ibrutinib -0.065 | ralimetinib 0.079 | [2] -0.068 | [3] -0.001 | [4] 0.128 | [5] 0.028 | [6] -0.012 | [7] 0.015 | vemurafenib 0.082 | barasertib 0 | [10] -0.077 | [11] 0.096 | [12] 0.032 | [13] -0.035 | saracatinib 0.035 | sotrastaurin 0.102

GAGE1 (UniProt Q13065)
inactive: ibrutinib -0.013 | [1] -0.016 | ralimetinib 0.023 | [2] -0.16 | [7] -0.238 | [8] 0.02 | [9] -0.121 | barasertib 0.073 | [10] -0.14 | volasertib -0.036 | [11] -0.037

FZR1 isoform 2 (UniProt Q9UM11)
inactive: ibrutinib 0.074 | barasertib 0.026 | [12] 0.037 | [13] 0.032

FZD5 (UniProt Q13467)
inactive: ibrutinib 0.098 | [1] -0.16 | [5] -0.118 | [8] 0.101 | [9] -0.076 | barasertib 0.112 | volasertib 0.003 | [12] -0.145 | [13] 0.029 | saracatinib -0.274

FRMD8 (UniProt Q9BZ67)
inactive: ibrutinib 0.136 | [3] -0.035 | [4] 0.12 | [5] 0 | [6] 0.11 | vemurafenib 0.019 | barasertib -0.127 | [10] 0.06 | [12] -0.126 | [13] -0.063 | saracatinib 0.177 | sotrastaurin 0

FRMPD3 (UniProt Q5JV73)
inactive: ibrutinib 0.005 | [1] -0.129 | ralimetinib 0.101 | [2] -0.026 | [3] 0.052 | [4] -0.174 | [7] -0.014 | [8] -0.069 | vemurafenib 0.003 | [9] 0.016 | barasertib 1.15 | volasertib -0.01 | [11] -0.11 | [12] 0.636 | [13] 0

GFOD2 (UniProt Q3B7J2)
inactive: ibrutinib 0.045 | [1] -0.206 | ralimetinib -0.091 | [2] -0.01 | [3] 0 | [5] -0.079 | [7] 0.054 | [8] -0.076 | vemurafenib 0.176 | [9] 0.029 | barasertib -0.001 | [10] -0.197 | volasertib 0.055 | [11] 0.135 | [12] -0.065 | [13] 0.235 | saracatinib -0.129

GAA (UniProt P10253)
inactive: ibrutinib 0.013 | [1] -0.011 | ralimetinib 0.054 | [2] -0.133 | [3] 0.009 | [4] 0.142 | [6] 0.028 | [7] 0.036 | [8] -0.084 | vemurafenib 0.068 | [9] -0.101 | barasertib -0.063 | [10] -0.006 | volasertib 0.015 | [11] -0.021 | [12] 0.122 | [13] 0.027 | sotrastaurin -0.039

FUT8 (UniProt Q9BYC5)
inactive: ibrutinib -0.075 | [1] 0.042 | ralimetinib -0.141 | [2] -0.259 | [3] -0.075 | [7] 0.111 | [8] 0.022 | [9] -0.026 | barasertib 0.251 | [10] 0.079 | volasertib 0.12 | [11] 0.239

FYN (UniProt P06241)
active: ibrutinib 0.79
inactive: [1] 0.046 | ralimetinib 0.09 | [2] -0.13 | [3] 0.003 | [5] -0.042 | [6] -0.069 | [7] 0.052 | [8] 0.021 | vemurafenib -0.036 | [9] -0.01 | barasertib 0.065 | [10] -0.351 | volasertib 0.046 | [11] 0.033 | [12] 0.048 | [13] 0.22 | sotrastaurin 0.023
